# Reference: PubChem BioAssay AID1259424 (University of Nebraska Medical Center, 2018)
# Screen: 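Rank knockdowns across the genome by resemblance to the KSR1 depletion profile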 (primary screen)
# Cells: human HCT116 colon cancer cells
# Reagent: siRNA pool against human genes, 50 nM
# Read-out: 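Six signature mRNAs by branched-DNA multiplex assay, scaled to two housekeeping genes and non-targeting median, log2; matched to mean KSR1 knockdown profile by Pearson correlation and euclidean distance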
# Direction: mean correlation with KSR1 profile and KSR1 correlation: higher = expression change more like KSR1 knockdown; mean distance from KSR1 profile: higher = expression change less like KSR1 knockdown
# Shown is a random part of about 14,000 reagents. 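Higher correlation or smaller distance means closer resemblance to KSR1 loss; control wells, including KSR1 knockdowns, recur on many plates.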 Some reagents were tested in more than one well and are listed for each. The record does not give: the time to read-out.
gene,mean correlation with KSR1 profile,mean distance from KSR1 profile,"KSR1 correlation, replicate 1","KSR1 correlation, replicate 2","KSR1 correlation, replicate 3"
TMPRSS11E,-0.0552,2.18,-0.0109,-0.0986,-0.166
SSNA1,0.519,4.38,0.0565,0.295,0.567
HOXC12,0.155,1.89,-0.193,0.351,0.276
HSPA6,0.0988,1.99,-0.0962,0.0928,0.408
TNPO2,0.466,4.12,0.505,0.358,0.537
TNPO2,0.238,2.82,-0.041,-0.0814,0.141
GALNS,-0.0789,3.73,0.208,0.0704,-0.125
SATB2,-0.718,2.54,-0.648,-0.544,-0.0645
ZNF562,-0.071,1.72,0.309,-0.299,-0.215
IMPG1,-0.00404,2.17,0.119,-0.0491,-0.26
MTHFD2,-0.056,1.69,-0.027,-0.156,0.0597
ELAVL2,-0.282,2.12,0.158,-0.534,-0.416
SLC16A1,-0.826,1.82,-0.806,-0.783,-0.743
CRELD2,0.148,1.96,0.18,-0.39,0.379
CETN2,-0.351,2.37,-0.452,-0.435,-0.393
PSMG1,-0.321,1.78,-0.493,-0.167,-0.148
CCNDBP1,-0.519,4.11,-0.609,-0.495,-0.56
FERMT3,0.632,1.57,0.333,0.698,0.63

Ordered by “mean correlation with KSR1 profile” (high to low): some entries from above.
gene,mean correlation with KSR1 profile,mean distance from KSR1 profile,"KSR1 correlation, replicate 1","KSR1 correlation, replicate 2","KSR1 correlation, replicate 3"
IMPG1,-0.00404,2.17,0.119,-0.0491,-0.26
MTHFD2,-0.056,1.69,-0.027,-0.156,0.0597
ZNF562,-0.071,1.72,0.309,-0.299,-0.215
ELAVL2,-0.282,2.12,0.158,-0.534,-0.416
SATB2,-0.718,2.54,-0.648,-0.544,-0.0645

Next results follow:
gene,mean correlation with KSR1 profile,mean distance from KSR1 profile,"KSR1 correlation, replicate 1","KSR1 correlation, replicate 2","KSR1 correlation, replicate 3"
IL1R2,-0.423,1.73,-0.47,-0.402,-0.318
IFI30,-0.458,1.97,-0.293,-0.635,-0.44
FBXO40,0.534,1.88,0.568,0.402,0.55
FXYD5,-0.551,2.36,-0.511,-0.74,-0.586
OR2M4,0.489,1.32,0.499,0.395,0.442
DUSP13B,0.349,1.27,0.378,0.344,0.337
GATA5,0.398,1.46,0.544,0.597,0.404
CNOT3,0.161,3.22,0.209,0.415,0.173
LOX,0.521,0.887,0.509,0.365,0.251
NIPAL3,-0.328,2.2,-0.236,-0.48,-0.266
RIMS2,0.35,2.4,0.105,0.411,0.549
MLLT11,0.0923,1.85,-0.119,0.0316,0.487
HOOK2,-0.271,2.3,-0.8,-0.25,-0.481
FTHL17,0.158,6.16,0.386,0.0552,0.403
ANXA2P1,-0.559,3.36,-0.616,-0.398,-0.538
MEGF9,-0.385,1.92,-0.198,-0.336,-0.583
DAAM2,-0.376,4.8,-0.41,-0.353,-0.373
SELENOP,0.907,1.3,0.751,0.828,0.847
NET1,-0.389,1.37,-0.543,-0.171,-0.351
NLRP2,0.656,1.58,0.583,0.537,0.674
TRPV4,0.0778,2.69,0.167,-0.0789,-0.0133
MRPL11,-0.487,3.2,0.0402,-0.598,0.0707
DGAT1,0.784,2.84,0.791,0.789,0.843
ARHGEF16,0.165,3.47,-0.115,-0.0123,0.442
